Values quoted from earlier work in patent US12629378B2, “Treatment of infantile hemangioma” (Arkayli Biopharma Inc., priority 2019, dated 2026).
Some of these results come from one statement about several compounds together.

Settings: in vivo; cited from earlier work

## COC(=O)CCc1ccc(OCC(O)CNC(C)C)cc1 (stereo not shown) [Esmolol, methyl 3-[4-[2-hydroxy-3-(propan-2-ylamino)propoxy]phenyl]propanoate]
  elimination half-life: less than 9 minutes
